Assay [1] deals with AMPK-α1 (human (endogenous in melanoma cell lines)) (UniProt Q13131). As to the kind of experiment: co-IP; anti-AMPK-α1 antibody and Gammabind plus sepharose beads added to lysates of parental and BR cells incubated with or without ADI-PEG20 (100 ng/ml) in the presence of MG-132 (10 μM) for 4 hr; SDS-PAGE and immunoblotting.
Assay [2] addresses AMPK-α1 (human (endogenous in melanoma cell lines)), Q13131. The description is as above. The settings on record: remark: other sources report otherwise.

Sequences of proteins named here, by UniProt entry; tags and fusion partners are left off.
UniProt Q13131: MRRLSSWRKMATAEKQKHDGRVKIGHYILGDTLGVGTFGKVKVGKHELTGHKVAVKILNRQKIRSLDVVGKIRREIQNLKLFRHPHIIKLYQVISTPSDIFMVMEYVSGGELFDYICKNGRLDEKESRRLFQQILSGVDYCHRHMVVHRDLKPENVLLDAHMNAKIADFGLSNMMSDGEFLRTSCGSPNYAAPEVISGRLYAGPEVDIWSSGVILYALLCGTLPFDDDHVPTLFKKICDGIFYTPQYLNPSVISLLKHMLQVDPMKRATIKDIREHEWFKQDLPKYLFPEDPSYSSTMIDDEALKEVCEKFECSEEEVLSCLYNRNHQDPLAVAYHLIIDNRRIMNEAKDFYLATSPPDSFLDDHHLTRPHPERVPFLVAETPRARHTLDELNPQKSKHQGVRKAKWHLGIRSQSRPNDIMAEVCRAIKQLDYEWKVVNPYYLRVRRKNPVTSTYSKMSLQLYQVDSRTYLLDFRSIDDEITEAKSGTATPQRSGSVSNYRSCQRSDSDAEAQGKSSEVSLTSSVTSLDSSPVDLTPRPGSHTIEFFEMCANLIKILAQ
UniProt Q969Q1: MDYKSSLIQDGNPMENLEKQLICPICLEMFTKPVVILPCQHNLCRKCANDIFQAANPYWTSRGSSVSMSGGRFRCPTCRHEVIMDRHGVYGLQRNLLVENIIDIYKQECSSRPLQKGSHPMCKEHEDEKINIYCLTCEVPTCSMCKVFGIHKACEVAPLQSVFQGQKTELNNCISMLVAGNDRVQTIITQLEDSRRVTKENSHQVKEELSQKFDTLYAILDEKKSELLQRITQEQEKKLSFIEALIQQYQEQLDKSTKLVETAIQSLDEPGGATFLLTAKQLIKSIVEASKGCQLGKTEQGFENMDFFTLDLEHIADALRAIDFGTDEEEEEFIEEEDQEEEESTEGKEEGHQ
UniProt Q7L0R7: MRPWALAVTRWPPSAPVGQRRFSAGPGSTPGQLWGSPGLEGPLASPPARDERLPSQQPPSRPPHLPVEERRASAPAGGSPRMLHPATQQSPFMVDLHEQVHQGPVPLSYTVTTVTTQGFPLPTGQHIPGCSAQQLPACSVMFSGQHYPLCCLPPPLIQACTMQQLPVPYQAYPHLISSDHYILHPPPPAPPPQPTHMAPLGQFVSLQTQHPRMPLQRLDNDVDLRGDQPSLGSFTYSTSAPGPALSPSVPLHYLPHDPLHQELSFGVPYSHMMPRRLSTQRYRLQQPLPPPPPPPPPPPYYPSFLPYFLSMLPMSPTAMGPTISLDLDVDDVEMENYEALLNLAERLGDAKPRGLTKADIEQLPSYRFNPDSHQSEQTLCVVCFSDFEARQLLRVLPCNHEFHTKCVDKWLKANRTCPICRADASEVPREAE

No constants are given. Whether binding was seen depends on the method and setting. Binding seen in cells or lysates may run through a third protein. Some binding calls cover weakened binding; strength is not graded here.

With MuRF1 (from UniProt Q969Q1 1-353), the binding result in assay [1] is given as “no binding”. Turning to “RING finger 44 (RNF44) (from UniProt Q7L0R7 1-432)”, the binding entry in assay [1] is given as “binds”.

B1: Cidea (protein, UniProt O60543 1-219)
chain: MEAARDYAGALIRPLTFMGSQTKRVLFTPLMHPARPFRVSNHDRSSRRGVMASSLQELISKTLDALVIATGLVTLVLEEDGTVVDTEEFFQTLGDNTHFMILEKGQKWMPGSQHVPTCSPPKRSGIARVTFDLYRLNPKDFIGCLNVKATMYEMYSVSYDIRCTGLKGLLRSLLRFLSYSAQVTGQFLIYLGTYMLRVLDDKEERPSLRSQAKGRFTCG
As for B1, in assay [1], the binding entry is “no binding”.

B2: Melanoma-associated antigen 3 (MAGE-A3), P43357 1-314 (protein)
chain: MPLEQRSQHCKPEEGLEARGEALGLVGAQAPATEEQEAASSSSTLVEVTLGEVPAAESPDPPQSPQGASSLPTTMNYPLWSQSYEDSSNQEEEGPSTFPDLESEFQAALSRKVAELVHFLLLKYRAREPVTKAEMLGSVVGNWQYFFPVIFSKASSSLQLVFGIELMEVDPIGHLYIFATCLGLSYDGLLGDNQIMPKAGLLIIVLAIIAREGDCAPEEKIWEELSVLEVFEGREDSILGDPKKLLTQHFVQENYLEYRQVPGSDPACYEFLWGPRALVETSYVKVLHHMVKISGGPHISYPPLHEWVLREGEE
With B2, the binding result in assay [2] is on record as “no binding”.

These data come from article PMC5709618.
